Measured data: PubChem BioAssay AID686943 (Drosophila RNAi Screening Center, 2013)
Test: 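Search across the genome for regulators of signalling from receptor tyrosine kinase to ERK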 (primary screen). Cells: Drosophila S2R+ haemocyte-like cells expressing YFP-tagged ERK (Rolled). Reagents: long dsRNA against Drosophila genes. Treatment: insulin stimulation versus unstimulated cells; dose and duration not given. Measurement: 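Antibody staining for doubly phosphorylated ERK divided by ERK-YFP signal, as plate z-scores, in insulin-treated and untreated cells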. Scale: replicate 1, z-score of dpERK with insulin: higher = more active ERK per ERK-YFP after insulin.
The deposit covers about 23,000 reagents; this is an unselected part of those that have a named target and a result. 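Extra replicates exist only for a retested subset of genes; insulin dose and duration not given; both raised and lowered dpERK matter.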 Reagents against one gene are numbered here. Further read-outs or replicates are left out here. Not given: the amount of reagent, the time to read-out.

Knock-down of Gr98d (GeneID 43309) resulted in: replicate 1, z-score of dpERK with insulin 0.54. Hsp60A (GeneID 32045) scored replicate 1, z-score of dpERK with insulin -0.09. Silencing of CG12278 (GeneID 42486) resulted in: replicate 1, z-score of dpERK with insulin -0.95. After knock-down of Lac (GeneID 36363), the record shows replicate 1, z-score of dpERK with insulin 0.19. CG12869 (GeneID 36616) scored replicate 1, z-score of dpERK with insulin 0.53. IntS12 (GeneID 43227) showed replicate 1, z-score of dpERK with insulin -1.37.

After knock-down of l(1)G0320 (GeneID 326234), the screen gave replicate 1, z-score of dpERK with insulin 0.11. Silencing of CG9294 (GeneID 37491) came out at: replicate 1, z-score of dpERK with insulin 2. l(3)psg2 (GeneID 38630) gave replicate 1, z-score of dpERK with insulin 1.69. After knock-down of CDase (GeneID 43618), the screen gave replicate 1, z-score of dpERK with insulin -0.73. CG18266 (GeneID 33792) scored replicate 1, z-score of dpERK with insulin 0.51. Knock-down of Fcp1 (GeneID 37925) gave: replicate 1, z-score of dpERK with insulin -0.05.

CG13127 (GeneID 34335) showed replicate 1, z-score of dpERK with insulin -0.23. Knock-down of CG5653 (GeneID 39024) came out at: replicate 1, z-score of dpERK with insulin 0.95. After knock-down of Andorra (GeneID 32798), the screen gave replicate 1, z-score of dpERK with insulin 0.61. With knock-down of ClC-b (GeneID 36381), the screen gave replicate 1, z-score of dpERK with insulin -0.39. CLIP-190 (GeneID 35042) showed replicate 1, z-score of dpERK with insulin 1.28. After knock-down of SCaMC (GeneID 39415) #1, the screen gave replicate 1, z-score of dpERK with insulin 0.84.

SCaMC (GeneID 39415) #2 scored replicate 1, z-score of dpERK with insulin 0.21. Against CG5157 (GeneID 39771), the entry reads replicate 1, z-score of dpERK with insulin -0.11. With knock-down of NitFhit (GeneID 38029) the results were replicate 1, z-score of dpERK with insulin 1.46. Depletion of dnd (GeneID 42580) resulted in: replicate 1, z-score of dpERK with insulin 0.68. Silencing of ACXE (GeneID 53426) gave: replicate 1, z-score of dpERK with insulin -0.32.

Part of the list above, reformatted.
| gene | reagent no. | replicate 1, z-score of dpERK with insulin |
| --- | --- | --- |
| CDase (GeneID 43618) | 1 | -0.73 |
| CG18266 (GeneID 33792) | 1 | 0.51 |

The listing continues:
With knock-down of Trf (GeneID 34102), the screen gave replicate 1, z-score of dpERK with insulin 0.59. Silencing of BicC (GeneID 34946) gave: replicate 1, z-score of dpERK with insulin -1.43. CG5708 (GeneID 34361) showed replicate 1, z-score of dpERK with insulin -0.1. After knock-down of Ldh (GeneID 45880), the screen gave replicate 1, z-score of dpERK with insulin 1.38. Against Eip78C (GeneID 40345), the entry reads replicate 1, z-score of dpERK with insulin -3.23. Prosalpha4T2 (GeneID 37910) scored replicate 1, z-score of dpERK with insulin 1.38.

fzo (GeneID 42745) scored replicate 1, z-score of dpERK with insulin 0.49. Silencing of tos (GeneID 35119) resulted in: replicate 1, z-score of dpERK with insulin 0.83. CG3097 (GeneID 31503) gave replicate 1, z-score of dpERK with insulin -0.16. Depletion of CG8539 (GeneID 38842) #1 came out at: replicate 1, z-score of dpERK with insulin 0.72. CG8539 (GeneID 38842) #2 showed replicate 1, z-score of dpERK with insulin -0.15. CG16998 (GeneID 38847) showed replicate 1, z-score of dpERK with insulin 0.24.

Knock-down of CG14260 (GeneID 43287) came out at: replicate 1, z-score of dpERK with insulin 1.19. Cdc16 (GeneID 42753) showed replicate 1, z-score of dpERK with insulin -0.24. After knock-down of Mst84Dd (GeneID 40886) the results were replicate 1, z-score of dpERK with insulin 0.28. Depletion of Prx3 (GeneID 42109) gave: replicate 1, z-score of dpERK with insulin -1.89. For Cog3 (GeneID 33562), the entry reads replicate 1, z-score of dpERK with insulin 0.37.
